The list shows only some results of the screen, not a fair sample: it gathers tests that were run many times, whatever their T/C, doses with no T/C, and many T/C values between a quarter and a half above the control. Other doses and runs of a compound stand elsewhere. T/C is the treated group as % of the vehicle group. Some doses have a count of surviving animals in place of a T/C: the source holds a T/C of zero for them, seemingly a mark for toxic or unscored doses. Some doses without a T/C left all or most animals alive at the check, yet need not have been tolerated: survival well below the control is almost never listed, so the zero probably covers shortened survival too. Survivors were counted at the toxicity check, usually on the fifth day, unless a day is given; later deaths do not show. Schedule codes are those of the source, read here as Q, the interval in days (D) or hours (H), X, the number of doses. Some schedule codes hold Z or #, which are not explained here. Some entries hold several experiments; their values stand side by side, smallest first. Some molecules as drawn cover several salts, stereoisomers or complexes of the source; a dose is that of the sample tested. Where survival is the endpoint, the PubChem record calls one and a half times the control and up active, and a quarter to a half above the control has no call in these data; cut-offs in other NCI protocols can differ. Some T/C values carry the count of animals alive at the toxicity check (mostly the fifth day); where none is given, no animal had died by that day. Starred links: 1 amine or outer side, 2 acyl side, 3 side chain; linkers in the order of their positions; H or OH if unused. Positions of bridges follow the written chain, without caps; N, C: chain ends. Non-standard residues stand in square brackets, D forms with d. Residues, ends and D or L forms follow the SMILES beside them. Chains are numbered I, II in the order given. Actinocin(9to1) = Cc1c2oc3c(C)ccc(C(=O)[*:1])c3nc-2c(C(=O)[*:2])c(N)c1=O; aThr = C[C@H](O)[C@H](N)C(=O)O; NMeV = CN[C@H](C(=O)O)C(C)C; Sar = CNCC(=O)O
Tested on: BDF1 mice, L1210/MTX-resistant leukemia ip, survival T/C
Assay: NCI In Vivo Anticancer Drug Screen. Data for tumor model L1210 Leukemia resistant to Methotrexate; NSC 740 (intraperitoneal) in B6D2F1 (BDF1) mice
Conditions: T/C endpoint: mean survival time, higher T/C = longer survival
Procedure: The antitumor activity of compounds was measured in mice bearing transplantable tumors. Survival or tumor size were measured and the results are expressed as the measurement made in the treated group (T) divided by the measurement made in the vehicle treated control group (C). The tumor model used in this assay is L1210 Leukemia resistant to Methotrexate; NSC 740 (intraperitoneal) in B6D2F1 (BDF1) mice

[1] = dose: 6.3 mg/kg/injection, schedule: Q01DX Z (ip), vehicle: methylcellulose (MC)
[2] = dose: 12.5 mg/kg/injection, schedule: Q01DX Z (ip), vehicle: methylcellulose (MC)
[3] = dose: 20.0 mg/kg/injection, schedule: Q01DX Z (ip), vehicle: carboxymethylcellulose (CMC)
[4] = dose: 25.0 mg/kg/injection, schedule: Q01DX Z (ip), vehicle: methylcellulose (MC)
[5] = dose: 50.0 mg/kg/injection, schedule: Q01DX Z (ip), vehicle: methylcellulose (MC)
[6] = dose: 100.0 mg/kg/injection, schedule: Q01DX Z (ip), vehicle: methylcellulose (MC)
[7] = dose: 25.0 micrograms/kg/injection, schedule: Q01DX Z (ip), vehicle: saline
[8] = dose: 250.0 mg/kg/injection, schedule: Q01DX Z (ip), vehicle: carboxymethylcellulose (CMC)
[9] = dose: 200.0 mg/kg/injection, schedule: Q01DX Z (ip), vehicle: carboxymethylcellulose (CMC)
[10] = dose: 125.0 mg/kg/injection, schedule: Q01DX Z (ip), vehicle: saline
[11] = dose: 250.0 mg/kg/injection, schedule: Q01DX Z (ip), vehicle: saline
[12] = dose: 500.0 mg/kg/injection, schedule: Q01DX Z (ip), vehicle: saline
[13] = dose: 1000.0 mg/kg/injection, schedule: Q01DX Z (ip), vehicle: saline

CCN(CC)CCNc1ccc(C)c2sc3ccccc3c(=O)c12
survivor count [1]: 6 of 6 | T/C [2]: 126 % of control [4 of 6 alive] | survivor count [2]: 6 of 6 | T/C [3]: 140 % of control | survivor count [4]: 3 of 6 | T/C (dose: 40.0 mg/kg/injection, schedule: Q01DX Z (ip), vehicle: carboxymethylcellulose (CMC)): 126 % of control | survivor count [5]: 1 of 6 | T/C (dose: 80.0 mg/kg/injection, schedule: Q01DX Z (ip), vehicle: carboxymethylcellulose (CMC)): 130 % of control | survivor count [6]: 2 of 6

CS(=O)(=O)OCCCCOS(C)(=O)=O
survivor count (dose: 1.5 mg/kg/injection, schedule: Q01DX Z (ip), vehicle: methylcellulose (MC)): 5 of 6 | survivor count (dose: 3.0 mg/kg/injection, schedule: Q01DX Z (ip), vehicle: methylcellulose (MC)): 3 of 6 | survivor count (dose: 3.1 mg/kg/injection, schedule: Q01DX Z (ip), vehicle: methylcellulose (MC)): 6 of 6 | survivor count [1]: 3 of 6 | survivor count (dose: 12.5 mg/kg/injection, schedule: Q01DX Z (ip), vehicle: carboxymethylcellulose (CMC)): 6 of 6 | survivor count [2]: 5 of 6 | survivor count (dose: 25.0 mg/kg/injection, schedule: Q01DX010 (ip), vehicle: saline): 5 of 6 | survivor count (dose: 25.0 mg/kg/injection, schedule: Q01DX Z (ip), vehicle: carboxymethylcellulose (CMC)): 4 of 6 and 6 of 6 | survivor count [4]: 5 of 6 | survivor count (dose: 50.0 mg/kg/injection, schedule: Q01DX010 (ip), vehicle: saline): 6 of 6 | survivor count (dose: 50.0 mg/kg/injection, schedule: Q01DX Z (ip), vehicle: carboxymethylcellulose (CMC)): 0 of 6 and 6 of 6 | survivor count [5]: 1 of 6 | survivor count [6]: 0 of 6

C[C@H]1C(=O)O[C@@H]2CCN3CC=C(COC(=O)[C@](C)(O)[C@@]1(C)O)[C@H]23
survivor count [2]: 6 of 6 | survivor count [4]: 4 of 6 | survivor count [5]: 3 of 6 and 6 of 6 | survivor count [6]: 6 of 6 | survivor count (dose: 200.0 mg/kg/injection, schedule: Q01DX Z (ip), vehicle: methylcellulose (MC)): 5 of 6

Cc1c2oc3c(C)ccc(C(=O)N[C@@H]4C(=O)N[C@H](C(C)C)C(=O)N5CCC[C@H]5C(=O)N(C)CC(=O)N(C)[C@@H](C(C)C)C(=O)O[C@H]4C)c3nc-2c(C(=O)N[C@@H]2C(=O)N[C@H](C(C)C)C(=O)N3CCC[C@H]3C(=O)N(C)CC(=O)N(C)[C@@H](C(C)C)C(=O)O[C@H]2C)c(N)c1=O (I: [aThr][dV]P[Sar][NMeV] / II: [aThr][dV]P[Sar][NMeV]; ester I:1-I:C, II:1-II:C; linker I:N-II:N via Actinocin(9to1))
survivor count (dose: 0.05 mg/kg/injection, schedule: Q01DX Z (ip), vehicle: saline): 0 of 6 | survivor count (dose: 0.1 mg/kg/injection, schedule: Q01DX Z (ip), vehicle: saline): 0 of 6 | survivor count (dose: 6.3 micrograms/kg/injection, schedule: Q01DX Z (ip), vehicle: saline): 5 of 6 | T/C (dose: 12.0 micrograms/kg/injection, schedule: Q01DX Z (ip), vehicle: saline): 125 % of control | T/C [7]: 139 and 148 % of control | survivor count [7]: 6 of 6 | survivor count (dose: 125.0 micrograms/kg/injection, schedule: Q01DX Z (ip), vehicle: saline): 6 of 6

Nc1nc(=S)c2[nH]cnc2[nH]1
survivor count (dose: 2.5 mg/kg/injection, schedule: Q01DX010 (ip), vehicle: saline): 6 of 6 | survivor count (dose: 5.0 mg/kg/injection, schedule: Q01DX010 (ip), vehicle: saline): 6 of 6 | survivor count (dose: 10.0 mg/kg/injection, schedule: Q01DX010 (ip), vehicle: saline): 6 of 6 | survivor count [3]: 6 of 6

CCCCn1cnc2c(=S)nc[nH]c21
survivor count (dose: 128.0 mg/kg/injection, schedule: Q01DX010 (ip), vehicle: saline): 6 of 6

O=c1[nH]c(=O)n(C2CC(O)C(CO)O2)cc1Br (stereo not given)
survivor count (dose: 62.5 mg/kg/injection, schedule: Q01DX Z (ip), vehicle: carboxymethylcellulose (CMC)): 5 of 6 | survivor count (dose: 125.0 mg/kg/injection, schedule: Q01DX Z (ip), vehicle: carboxymethylcellulose (CMC)): 6 of 6 | survivor count [8]: 6 of 6 | survivor count (dose: 500.0 mg/kg/injection, schedule: Q01DX Z (ip), vehicle: carboxymethylcellulose (CMC)): 5 of 6

NC(Cc1ccc(N(CCCl)CCCl)cc1)C(=O)O (stereo not given)
survivor count (dose: 15.0 mg/kg/injection, schedule: Q01DX Z (ip), vehicle: carboxymethylcellulose (CMC)): 6 of 6 | survivor count (dose: 16.0 mg/kg/injection, schedule: Q01DX010 (ip), vehicle: other): 6 of 6

N[C@@H](Cc1ccc(N(CCCl)CCCl)cc1)C(=O)O
survivor count (dose: 12.0 mg/kg/injection, schedule: Q01DX Z (ip), vehicle: carboxymethylcellulose (CMC)): 6 of 6

Cn1c(N)nc2nc[nH]c2c1=S
survivor count (dose: 75.0 mg/kg/injection, schedule: Q01DX Z (ip), vehicle: carboxymethylcellulose (CMC)): 6 of 6 | survivor count (dose: 100.0 mg/kg/injection, schedule: Q01DX Z (ip), vehicle: carboxymethylcellulose (CMC)): 6 of 6 | survivor count (dose: 150.0 mg/kg/injection, schedule: Q01DX Z (ip), vehicle: carboxymethylcellulose (CMC)): 3 of 6 | survivor count [9]: 1 of 6

CSc1ncnc2nc[nH]c12
survivor count (dose: 1.87 mg/kg/injection, schedule: Q01DX Z (ip), vehicle: carboxymethylcellulose (CMC)): 6 of 6 | survivor count (dose: 3.75 mg/kg/injection, schedule: Q01DX Z (ip), vehicle: carboxymethylcellulose (CMC)): 6 of 6 | survivor count [8]: 2 of 6

N#CCSc1ncnc2nc[nH]c12
survivor count [9]: 0 of 6

CCOC(N)=O
T/C [10]: 129 % of control | survivor count [10]: 6 of 6 | survivor count (dose: 188.0 mg/kg/injection, schedule: Q01DX Z (ip), vehicle: saline): 6 of 6 | survivor count (dose: 250.0 mg/kg/injection, schedule: Q01DX010 (ip), vehicle: saline): 6 of 6 | T/C [11]: 137 % of control | survivor count [11]: 6 of 6 | survivor count (dose: 375.0 mg/kg/injection, schedule: Q01DX Z (ip), vehicle: saline): 6 of 6 | T/C [12]: 86, 113, 137 % of control | survivor count [12]: 6 of 6 | survivor count (dose: 750.0 mg/kg/injection, schedule: Q01DX Z (ip), vehicle: saline): 6 of 6 | T/C [13]: 86 and 140 % of control | survivor count [13]: 6 of 6

CC(=O)O[C@]1(C(C)=O)CC[C@H]2[C@@H]3C[C@H](C)C4=CC(=O)C=C[C@]4(C)[C@@]3(F)[C@@H](O)C[C@@]21C
T/C (dose: 50.0 mg/kg/injection, schedule: Q01DX Z (sc), vehicle: steroid suspending solution): 139 % of control | T/C (dose: 75.0 mg/kg/injection, schedule: Q01DX Z (sc), vehicle: steroid suspending solution): 145 % of control | T/C (dose: 100.0 mg/kg/injection, schedule: Q01DX Z (sc), vehicle: steroid suspending solution): 133 % of control | survivor count (dose: 187.0 mg/kg/injection, schedule: Q01DX Z (sc), vehicle: steroid suspending solution): 6 of 6 | survivor count (dose: 250.0 mg/kg/injection, schedule: Q01DX Z (sc), vehicle: steroid suspending solution): 6 of 6 | survivor count (dose: 375.0 mg/kg/injection, schedule: Q01DX Z (sc), vehicle: steroid suspending solution): 6 of 6 | survivor count (dose: 500.0 mg/kg/injection, schedule: Q01DX Z (sc), vehicle: steroid suspending solution): 6 of 6

Nc1ncnc2[nH]ncc12
survivor count (dose: 12.0 mg/kg/injection, schedule: Q01DX010 (ip), vehicle: saline): 6 of 6

C[n+]1c2ccccc2nc2c(N)cc(N)cc21
survivor count (dose: 27.0 mg/kg/injection, schedule: Q01DX010 (ip), vehicle: saline): 3 of 6
